Results deposited as PubChem BioAssay AID1259254 (NCATS, 2017)
Purpose: 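Genome-wide screen for genes that prevent DNA re-replication in cancer cells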 (primary screen). Cell system: human HCT116 colorectal cancer cells. Reagent: single siRNA against human genes. Timing: 3 days. Measured: 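Nuclei stained with Hoechst and imaged; cell-cycle phase assigned by DNA content; G2 share scaled per plate, non-targeting siRNA 0%, GMNN siRNA 100%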. Scale: G2 robust z-score: higher = more G2 cells, more excess DNA replication. Hit rule: 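An siRNA counts as active if its G2 robust z-score lies at least 5 MADs above the screen median; here such calls match roughly 38% of GMNN control or more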.
The deposit covers about 59,000 reagents; shown is a part drawn at random. Over the whole deposit, about 1,550 (2.6%) are marked active. 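G2 share is only a proxy for re-replication; each gene was hit by three separate siRNAs, and active genes were retested.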 Reagents against one gene are numbered here. Further read-outs or replicates are left out here. No sequences are given here. Not stated in the record: the amount of reagent.

SERPINB1 (GeneID 1992) #1 scored G2 robust z-score -0.561; inactive.
Silencing of SERPINB1 (GeneID 1992) #2 gave: G2 robust z-score -0.112; inactive.
With knock-down of SERPINB1 (GeneID 1992) #3, the record shows G2 robust z-score -0.703; inactive.
Knock-down of CACNA1G (GeneID 8913) #1 gave: G2 robust z-score 1.08; inactive.
With knock-down of CACNA1G (GeneID 8913) #2 the results were G2 robust z-score -1.52; inactive.
CACNA1G (GeneID 8913) #3 showed G2 robust z-score 0.504; inactive.
IRX1 (GeneID 79192) #1 gave G2 robust z-score 0.707; inactive.
IRX1 (GeneID 79192) #2 scored G2 robust z-score -0.441; inactive.
With knock-down of IRX1 (GeneID 79192) #3, the screen gave G2 robust z-score 2.12; inactive.
Depletion of ZNRF4 (GeneID 148066) #1 gave: G2 robust z-score 2.42; inactive.
After knock-down of ZNRF4 (GeneID 148066) #2, the record shows G2 robust z-score 0.558; inactive.
ZNRF4 (GeneID 148066) #3 showed G2 robust z-score 0.554; inactive.

2 neighbouring reagents already listed, quoted:
IRX1 (GeneID 79192) #2 — G2 robust z-score = -0.441; outcome = inactive
IRX1 (GeneID 79192) #3 — G2 robust z-score = 2.12; outcome = inactive

Additional results follow.
Against TCAIM (GeneID 285343) #1, the values are G2 robust z-score 0.982; inactive.
For TCAIM (GeneID 285343) #2, the values are G2 robust z-score 0.262; inactive.
Knock-down of TCAIM (GeneID 285343) #3 came out at: G2 robust z-score 0.105; inactive.
With knock-down of C8G (GeneID 733) #1, the record shows G2 robust z-score 3.98; inactive.
With knock-down of C8G (GeneID 733) #2, the record shows G2 robust z-score -0.903; inactive.
With knock-down of C8G (GeneID 733) #3 the results were G2 robust z-score -0.923; inactive.
For TTC6 (GeneID 319089) #1, the entry reads G2 robust z-score -1.11; inactive.
Knock-down of TTC6 (GeneID 319089) #2 came out at: G2 robust z-score -0.89; inactive.
Against TTC6 (GeneID 319089) #3, the values are G2 robust z-score 0.886; inactive.
TTC6 (GeneID 319089) #4 scored G2 robust z-score 0.631; inactive.
TTC6 (GeneID 319089) #5 scored G2 robust z-score -0.658; inactive.
After knock-down of TTC6 (GeneID 319089) #6, the screen gave G2 robust z-score 0.362; inactive.
